Test results reported in PubChem BioAssay AID2551 (National Center for Advancing Translational Sciences (NCATS), 2010).
Out of some 310,000 compounds screened, about 17,000 (5.5%) were called active. Inconclusive results, whose numbers are uncertain, are shown with a selection of clear calls. Calls follow the shape of the dose curve; as a rule, active = well fitted inhibition curve with a large enough effect; inconclusive = small, poorly fitted or top-dose-only effect, or effect the other way; inactive = no such curve, though single readings can be large or run the other way. Where the call is inconclusive, the potency comes from a doubtful curve fit.
% is scaled to controls: 0 for no effect and ±100 for the full control effect; potency is read from the fitted curve at half-maximal effect.
Also: nearly all actives have a fitted effect of over 60% in size.

Chains of the proteins cited; added tags and fusions are not shown. Lines headed by an entry give the natural chain unless they say otherwise; changes in a name come on top.
UniProt P51450: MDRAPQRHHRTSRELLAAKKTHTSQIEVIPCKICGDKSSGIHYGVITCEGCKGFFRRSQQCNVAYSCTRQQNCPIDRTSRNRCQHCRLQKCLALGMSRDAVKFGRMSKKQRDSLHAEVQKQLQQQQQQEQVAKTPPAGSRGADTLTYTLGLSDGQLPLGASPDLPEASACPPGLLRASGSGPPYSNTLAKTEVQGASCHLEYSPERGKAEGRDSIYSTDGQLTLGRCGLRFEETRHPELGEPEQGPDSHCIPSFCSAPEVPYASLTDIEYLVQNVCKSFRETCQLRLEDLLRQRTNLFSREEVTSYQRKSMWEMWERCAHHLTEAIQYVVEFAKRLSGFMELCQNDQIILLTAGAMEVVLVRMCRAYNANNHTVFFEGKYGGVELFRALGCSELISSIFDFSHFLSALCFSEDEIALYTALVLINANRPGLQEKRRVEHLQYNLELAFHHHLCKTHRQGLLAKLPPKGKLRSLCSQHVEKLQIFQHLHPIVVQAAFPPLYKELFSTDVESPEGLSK

What follows are compounds tested against Nuclear receptor ROR-gamma (Mus musculus) (UniProt P51450) (assay: qHTS for inhibitors of ROR gamma transcriptional activity). Conditions: Drosophila S2 Gal4-RORgamma UAS-luciferase reporter, 20 h; activity change, negative = inhibition: at 53.6 µM (top of the series).
Outline: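 A Gal4/UAS one-hybrid system in insect cells: metallothionein-promoter Gal4–ROR gamma fusion plus Photinus luciferase reporter. Copper sulfate 700 uM final, 20 hr ambient incubation, luminescent detection after 10 min with reagent.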
In the case of `CCN1CCCC1CNC(=O)c1ccc(Sc2ccccc2Cl)c([N+](=O)[O-])c1` (centres undefined), the Potency was inconclusive: 35.5 µM [inhibitor, single point]. `S=c1[nH]nc(Cn2nnc3ccccc32)n1-c1ccccc1` was tested, and the Potency was inconclusive: 31.6 µM [inhibitor, single point]. `O=C(CCc1ccc(CCC(=O)c2cccs2)s1)c1cccs1` was tested, and the Potency was inconclusive: 12.6 µM [activator, single point]. `CC(=O)c1sc(Nc2nc3cc4c(cc3s2)OCO4)nc1C` was tested, and the Potency was active: 5.01 µM. For `Cc1sc2ncnc(N3CCN(CCOc4ccc(Cl)cc4)CC3)c2c1C`, the Potency was inconclusive: 8.91 µM [activator, partial curve]. For `O=[N+]([O-])c1cc(C(F)(F)F)ccc1NN=C1CCCC1`, the Potency was inconclusive: 35.5 µM [activator, single point]. With `COc1ccc(NC(=O)c2ccco2)c(NC(=O)c2ccc([N+](=O)[O-])cc2)c1` the “activity change, negative = inhibition” value was inactive: -25%. With `O=C(NN=C1CCCCCC1)c1cc(-c2ccccc2)nc2ccccc12` the Potency was inconclusive: 22.4 µM [inhibitor, single point]. In the case of `Cc1ccc(-c2cc(C(=O)NCc3ccco3)c3ccccc3n2)s1`, the Potency was inconclusive: 3.16 µM [inhibitor, single point]. For `CCOC(=O)CSc1nc2sc3c(c2c(=O)[nH]1)CC(C)(C)OC3`, the Potency was inconclusive: 0.0891 µM [inhibitor, full curve, poor fit]. For `COc1cc(C)c(S(=O)(=O)NCc2cccs2)cc1C`, the Potency was inconclusive: 35.5 µM [inhibitor, single point]. `CCNC(=S)Nc1ccc(C)c(S(=O)(=O)Nc2ccccc2OC)c1` was tested, and the Potency was inconclusive: 10 µM [inhibitor, partial curve]. For `COc1cccc(/C=C2\CCC(C3CCCC3)C2=O)c1OC` (centres undefined), the “activity change, negative = inhibition” value was inactive: -19.4%. In the case of `C/C(=C\c1ccccc1)C(=O)Nc1nccs1`, the Potency was active: 6.31 µM. `CCCOC(=O)c1ccc(OCC(O)Cn2c(C)nc3ccccc32)cc1` (centres undefined) was tested, and the Potency was inconclusive: 1.58 µM [activator, full curve]. In the case of `COc1cccc(/C=C2/Sc3ccc(C(=O)NCCN4CCCCCC4)cc3NC2=O)c1`, the Potency was inconclusive: 35.5 µM [inhibitor, single point]. With `Cc1ccc(S(=O)(=O)N2CCN(S(=O)(=O)c3ccccc3)C2c2ccc(N(C)C)cc2)cc1` (centres undefined) the “activity change, negative = inhibition” value was inactive: 29.1%. For `COc1cccc(/C=N/Nc2ncnc3scc(-c4ccccc4)c23)c1OC`, the Potency was active: 3.98 µM. With `COCc1nn2c(N)c(-c3ccccc3)cnc2c1-c1ccccc1` the Potency was inconclusive: 0.631 µM [activator, single point]. `O=C(NN=C1CCCCCC1)c1ccc2c(c1)OCO2` was tested, and the Potency was inconclusive: 17.8 µM [inhibitor, single point]. With `CN=c1scc(-c2ccc(F)cc2)n1/N=C/c1ccc(O)c(O)c1` the Potency was active: 0.112 µM. With `O=C(c1[nH]ncc1-c1ccc(Cl)cc1)C1CO1` (centres undefined) the Potency was inconclusive: 35.5 µM [inhibitor, single point]. `CCN(Cc1ccncc1)S(=O)(=O)c1ccc(C(C)=O)cc1` was tested, and the “activity change, negative = inhibition” value was inactive: 30.6%. `Cc1cc(NC(=O)c2cncc(Br)c2)ccc1NC(=O)c1cc2ccccc2o1` was tested, and the Potency was inconclusive: 14.1 µM [inhibitor, single point]. With `COc1ccc(-c2cc(=O)oc3cc(OCC(=O)NCc4ccccn4)ccc23)cc1` the “activity change, negative = inhibition” value was inactive: 18%. `C/C(N)=C(/C#N)C(=O)CSc1nnc(Nc2cccc(C)c2)s1` was tested, and the Potency was inconclusive: 0.631 µM [activator, full curve]. In the case of `Cn1c(=O)[nH]c(=O)c2c1nc(N1CCCCC1)n2CC(O)COc1ccc([N+](=O)[O-])cc1` (centres undefined), the “activity change, negative = inhibition” value was inactive: 17.5%. For `COc1ccc(N2CCN(S(=O)(=O)c3ccc4c(c3)NC(=O)C(C)C(=O)N4)CC2)cc1` (centres undefined), the Potency was inconclusive: 8.91 µM [activator, partial curve]. In the case of `CCc1nnc(NC(=O)C23CC4CC(CC(C4)C2)C3)s1`, the Potency was inconclusive: 35.5 µM [inhibitor, single point]. For `CC(O)CNCCNCc1c(OCc2ccccc2)ccc2ccccc12` (centres undefined), the Potency was inconclusive: 35.5 µM [inhibitor, single point]. `O=C(CSc1nnc(-c2ccccn2)n1Cc1ccco1)c1ccc(-c2ccccc2)cc1` was tested, and the Potency was inconclusive: 25.1 µM [inhibitor, single point]. With `COc1ccc2c(c1)O[C@@H](c1cccc(C(F)(F)F)c1)[C@H](O)C2=O` the Potency was inconclusive: 14.1 µM [activator, single point]. For `COc1ccc(C2c3cc(OC)c(OC)cc3CCN2C(=O)c2cccc([N+](=O)[O-])c2)cc1OC` (centres undefined), the Potency was inconclusive: 12.6 µM [activator, single point]. With `N#CCCn1c(=O)c(CCc2ccccc2)nc2cnc(OCc3ccccc3)nc21` the Potency was inconclusive: 35.5 µM [activator, single point]. `C/C(=N\NC(=O)CSc1nc2ccccc2s1)c1cccnc1` was tested, and the Potency was inconclusive: 10 µM [activator, partial curve]. With `CC1CCCC(NC(=O)CSc2nnnn2C)C1C` (centres undefined) the Potency was inconclusive: 22.4 µM [inhibitor, single point]. `Nc1ncc(Br)cc1S(=O)(=O)NCCC(=O)NCc1ccc(F)cc1` was tested, and the “activity change, negative = inhibition” value was inactive: -9.64%. In the case of `O=C(COc1ccc(C(=O)O)cc1)Nc1cccc(C(F)(F)F)c1`, the Potency was inconclusive: 20 µM [activator, single point]. For `CCOC(=O)C1(CCOC)CCN(Cc2nc(-c3cccs3)oc2C)CC1`, the Potency was inconclusive: 1.78 µM [inhibitor, partial curve]. For `CCC(Sc1nc2c(c(=O)n1CC)SC(C)C2)C(=O)OC` (centres undefined), the “activity change, negative = inhibition” value was inactive: 14.2%. For `COc1ccccc1C(=O)NCCOc1ccc(C(C)(C)C)cc1`, the Potency was inconclusive: 20 µM [activator, single point]. In the case of `O=C(CCN1C(=O)COc2ccccc21)NCCCN1CCCC1`, the “activity change, negative = inhibition” value was inactive: 1.27%. `CC(C)Cn1c(=S)[nH]c2ccccc2c1=O` was tested, and the Potency was active: 1.12 µM. `FC(F)(F)c1nnc(-c2ccccc2)nc1N1CCOCC1` was tested, and the “activity change, negative = inhibition” value was inactive: 22.5%. With `O=C1C(N2CCOCC2)=C(n2nnc3ccccc32)C(=O)c2ccccc21` the Potency was active: 5.01 µM. With `c1ccc2oc(SCc3cn4ccccc4n3)nc2c1` the Potency was active: 8.91 µM. In the case of `COc1ccc(OCC(O)CNC(=O)Nc2ccc(Cl)cc2)cc1` (centres undefined), the Potency was inconclusive: 11.2 µM [activator, partial curve, poor fit]. With `Cc1ccccc1NC(=O)NCCc1c[nH]c2ccccc12` the Potency was inconclusive: 17.8 µM [activator, partial curve, poor fit]. For `CCOC(=O)N1CC=C2C(C#N)=C(N)C(C#N)(C#N)[C@H](c3ccc(OC(C)C)c(OCC)c3)[C@H]2C1`, the Potency was inconclusive: 7.08 µM [inhibitor, partial curve]. For `S=C(NCc1ccco1)Nc1ccc(Cl)c(Cl)c1`, the Potency was active: 12.6 µM. `CC(=O)NCC(=O)OCC(=O)c1ccc(C)cc1` was tested, and the Potency was inconclusive: 1.26 µM [inhibitor, single point]. For `CC(C)=CC(=O)OCC(=O)Nc1cc([N+](=O)[O-])ccc1F`, the “activity change, negative = inhibition” value was inactive: 1.51%. With `COc1ccc(-c2cn3c(C)c(C(=O)N4CCN(c5ccc(F)cc5)CC4)sc3n2)cc1` the “activity change, negative = inhibition” value was inactive: -43.4%. In the case of `COc1cccc(NC(=O)c2cc(CN3C(=O)c4ccccc4C3=O)ccc2OC)c1`, the Potency was inconclusive: 7.94 µM [activator, partial curve]. In the case of `COc1cc(OC)cc(C(=O)NC(=S)NCCc2ccccc2)c1`, the Potency was active: 0.708 µM. `Cc1ccc2c(CC(=O)OCc3cc(=O)n4c(n3)sc3ccccc34)coc2c1` was tested, and the “activity change, negative = inhibition” value was inactive: -7.07%. In the case of `CCOC(=O)c1cccc(N2C(=O)c3ccccc3S2(=O)=O)c1`, the “activity change, negative = inhibition” value was inactive: -4.6%. With `Cc1nnsc1C(=O)Nc1ccc(Cl)cc1` the Potency was inconclusive: 11.2 µM [activator, partial curve]. With `Cc1ccccc1Nc1ncnc2c1cnn2-c1ccccc1` the Potency was inconclusive: 22.4 µM [inhibitor, single point]. In the case of `O=[N+]([O-])c1ccc(Nc2cccc(F)c2)nc1`, the “activity change, negative = inhibition” value was inactive: -0.0463%. For `O=C(Nc1ccccc1F)C(=O)Nc1cccc2ccccc12`, the Potency was inconclusive: 1.26 µM [inhibitor, single point]. `CS(=O)c1nc(-c2ccc(Br)cc2)cc(-c2ccccc2)c1C#N` (centres undefined) was tested, and the Potency was active: 7.94 µM. `O=C(Nc1ccccc1)n1ccc(-c2ccc(-n3ccnc3)cc2)n1` was tested, and the “activity change, negative = inhibition” value was inactive: 17.3%. With `Cc1sc2ncnc(NCC3COc4ccccc4O3)c2c1C` (centres undefined) the Potency was inconclusive: 10 µM [inhibitor, partial curve, poor fit]. With `O=C(CSc1nc2ccccc2s1)N1c2ccccc2Sc2ccc(Cl)cc21` the “activity change, negative = inhibition” value was inactive: -0.606%. `O=C(Nc1nc(-c2cccs2)cs1)c1ccc(S(=O)(=O)N2CCCC2)cc1` was tested, and the “activity change, negative = inhibition” value was inactive: 34.1%. With `Cc1nc2ccc(NC(=O)c3ccc([N+](=O)[O-])cc3)cc2[nH]1` the Potency was inconclusive: 14.1 µM [activator, single point]. `CC(=O)CCC(=O)c1ccc2ccccc2c1` was tested, and the “activity change, negative = inhibition” value was inactive: 20.3%. `CN(C)c1nc(C(=O)Nc2ccccc2)nc(N(C)C)n1` was tested, and the “activity change, negative = inhibition” value was inactive: -3.03%. In the case of `C=CCNc1nc(Nc2ccc([N+](=O)[O-])cc2)nc(N2CCCC2)n1`, the Potency was active: 0.891 µM. `O=C1CSc2ccc(C(=O)Nc3cccc(S(=O)(=O)Nc4ccc(Br)cc4)c3)cc2N1` was tested, and the Potency was active: 15.8 µM. In the case of `Cc1ccc(-c2csc(NC(=O)C3CC(=O)N(Cc4ccco4)C3)n2)cc1` (centres undefined), the Potency was inconclusive: 17.8 µM [activator, partial curve]. For `N#CCCn1c(=O)c(-c2cccs2)nc2cnc(N3CCNCC3)nc21`, the Potency was inconclusive: 35.5 µM [inhibitor, single point]. For `CCOC(=O)Cn1nnnc1CN(Cc1ccc(OC)cc1)Cc1cc2cc(C)ccc2[nH]c1=O`, the Potency was inconclusive: 22.4 µM [activator, single point].
